Patent US6482810B1, “Antibiotic composition for inhibition of angiogenesis” (priority 1991, dated 2002)
“Also recorded” adds a separate entry of the source. At least one compound was matched to its structure with a doubt left.

How the values were obtained:
endothelial cells [1] = test: Cell growth (cell count) with increasing doses of minocycline; assay type: cell-based; details: cells counted on fourth day, FIG. 2A
astrocytes = test: as above; assay type: cell-based; details: cells counted on fourth day, FIG. 2A
endothelial cells [2] = test: DNA synthesis, 3H-thymidine uptake; assay type: cell-based; details: nearly confluent cells, 3H-thymidine added after 12 h, FIG. 2B
C6 glioma = test: Doubling time of tumor lines; assay type: cell-based; details: in vitro
F98 glioma = test: Doubling time of tumor lines; assay type: cell-based; details: in vitro
[3] = system: paraaortic endothelial cells; test: Doubling time of endothelial cells; assay type: cell-based; details: FIG. 2C
9L gliosarcoma = test: Doubling time of tumor lines; assay type: cell-based; details: in vitro
[4] = system: bovine retinal endothelial cells; test: Doubling time of endothelial cells; assay type: cell-based; details: FIG. 2C
pericytes = test: Cell growth (cell count) with increasing doses of minocycline; assay type: cell-based; details: cells counted on fourth day, FIG. 2A
[5] = system: tumor-induced angiogenesis (VX2 carcinoma) in the rabbit cornea; test: Rabbit cornea angiogenesis assay with VX2 carcinoma and controlled release polymers

Compound: CN(C)c1ccc(O)c2c1C[C@H]1C[C@H]3[C@H](N(C)C)C(O)=C(C(N)=O)C(=O)[C@@]3(O)C(O)=C1C2=O [minocycline]
- cell growth (endothelial cells [1]): inhibited
- cell growth (astrocytes): Only endothelial cell growth was inhibited
- DNA synthesis (3H-thymidine uptake) (endothelial cells [2]): specifically inhibited DNA synthesis of endothelial cells
- doubling time (C6 glioma): but not C6 glioma, F98 glioma, or 9L gliosarcoma tumor lines
- doubling time (F98 glioma): but not C6 glioma, F98 glioma, or 9L gliosarcoma tumor lines
- cell growth (doubling time) [3]: inhibited
- doubling time (9L gliosarcoma): but not C6 glioma, F98 glioma, or 9L gliosarcoma tumor lines
- cell growth (doubling time) [4]: significantly prolongs the doubling time; also recorded: inhibited
- cell growth (pericytes): Only endothelial cell growth was inhibited
- degree of angiogenesis inhibition compared with other inhibitors [5]: comparable to that of the combination of heparin and cortisone
